Article PMC5259782, “Allosteric Inhibition of Phosphoenolpyruvate Carboxylases is Determined by a Single Amino Acid Residue in Cyanobacteria” (Scientific Reports, 2017)

Biological target: T1, SyPEPC (Synechocystis sp. PCC 6803, UniProt P74299)
T1 construct: gene ppc
T1 sequence (P74299 1-1034): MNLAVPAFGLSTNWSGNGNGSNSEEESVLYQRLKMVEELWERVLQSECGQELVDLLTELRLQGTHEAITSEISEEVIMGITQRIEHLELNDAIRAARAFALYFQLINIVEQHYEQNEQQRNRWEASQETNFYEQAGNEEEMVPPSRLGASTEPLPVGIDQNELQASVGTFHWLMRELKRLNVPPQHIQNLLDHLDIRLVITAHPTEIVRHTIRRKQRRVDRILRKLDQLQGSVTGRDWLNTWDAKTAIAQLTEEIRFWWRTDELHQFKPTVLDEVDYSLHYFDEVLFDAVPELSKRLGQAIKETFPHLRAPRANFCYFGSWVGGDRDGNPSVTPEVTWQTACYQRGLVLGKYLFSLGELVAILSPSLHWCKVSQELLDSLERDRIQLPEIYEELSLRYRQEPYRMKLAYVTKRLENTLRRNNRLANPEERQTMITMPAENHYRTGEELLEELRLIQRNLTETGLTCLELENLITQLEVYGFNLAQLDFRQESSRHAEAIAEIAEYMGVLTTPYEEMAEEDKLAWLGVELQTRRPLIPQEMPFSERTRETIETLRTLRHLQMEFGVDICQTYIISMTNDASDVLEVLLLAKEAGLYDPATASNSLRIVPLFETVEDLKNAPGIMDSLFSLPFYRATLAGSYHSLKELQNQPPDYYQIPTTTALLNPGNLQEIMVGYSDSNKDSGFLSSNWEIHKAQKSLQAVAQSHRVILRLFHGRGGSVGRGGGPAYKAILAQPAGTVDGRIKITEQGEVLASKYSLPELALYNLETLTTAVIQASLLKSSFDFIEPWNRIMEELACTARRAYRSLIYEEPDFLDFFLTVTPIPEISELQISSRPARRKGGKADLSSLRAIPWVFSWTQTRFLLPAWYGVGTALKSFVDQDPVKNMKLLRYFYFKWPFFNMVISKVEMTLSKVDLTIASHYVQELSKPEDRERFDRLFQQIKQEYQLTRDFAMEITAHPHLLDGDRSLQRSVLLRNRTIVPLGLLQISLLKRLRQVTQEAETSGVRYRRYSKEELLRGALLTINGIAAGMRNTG
Assay: malate dehydrogenase-coupled NADH assay, residual activity
Type: biochemical
Conditions: read-out: SyPEPC activity (in vitro)
From the text: malate dehydrogenase-coupled NADH assay, residual activity on SyPEPC

activity at 1000 µM: 86.1 ± 6.7%
Structure (SMILES): O=C(O)CC(O)(CC(=O)O)C(=O)O [citrate]
